The target in assay [1] is T1, Piwi (Drosophila (endogenous in OSC)) (UniProt Q9VKM1).
T1 sequence: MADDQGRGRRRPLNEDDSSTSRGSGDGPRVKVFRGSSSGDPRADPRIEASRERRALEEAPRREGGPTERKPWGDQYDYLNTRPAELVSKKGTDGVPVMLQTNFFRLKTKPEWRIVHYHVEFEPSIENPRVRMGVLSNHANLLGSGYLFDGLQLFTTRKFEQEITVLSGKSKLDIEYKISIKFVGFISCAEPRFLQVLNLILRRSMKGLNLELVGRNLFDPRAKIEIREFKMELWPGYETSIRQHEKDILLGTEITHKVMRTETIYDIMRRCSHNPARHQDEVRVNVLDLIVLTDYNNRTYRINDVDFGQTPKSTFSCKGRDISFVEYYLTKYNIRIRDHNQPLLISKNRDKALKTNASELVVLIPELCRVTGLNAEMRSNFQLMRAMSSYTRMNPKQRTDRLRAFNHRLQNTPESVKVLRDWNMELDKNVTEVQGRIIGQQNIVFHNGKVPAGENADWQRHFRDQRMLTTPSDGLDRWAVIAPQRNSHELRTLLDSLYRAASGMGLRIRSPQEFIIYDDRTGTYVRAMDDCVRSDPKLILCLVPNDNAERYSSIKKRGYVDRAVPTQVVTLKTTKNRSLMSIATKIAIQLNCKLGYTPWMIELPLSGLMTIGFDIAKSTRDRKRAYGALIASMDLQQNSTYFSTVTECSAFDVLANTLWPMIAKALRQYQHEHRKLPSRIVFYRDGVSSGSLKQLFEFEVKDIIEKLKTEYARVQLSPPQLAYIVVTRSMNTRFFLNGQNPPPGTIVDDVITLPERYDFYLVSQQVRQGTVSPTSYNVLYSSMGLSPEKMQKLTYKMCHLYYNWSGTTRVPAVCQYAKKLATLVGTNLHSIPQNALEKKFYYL
As to the kind of experiment: co-IP; IP of endogenous Piwi (anti-Piwi mouse monoclonal) or endogenous MEP-1 (anti-MEP-1 rabbit polyclonal) from OSC nuclear extract (Gtsf1-FH-containing; for Fig. 6a expressing FLAG-FFL-Su(var)2-10), Nuclear Complex Co-IP Kit under stringent conditions, overnight at 4 °C, Dynabeads protein G, control IgG, western blot. On the technique in general: Immunoblotting shows a protein as a band on a membrane.

The chains behind the UniProt entries cited, without tags or fusion partners. Where a name states a change or a piece, a line headed by the entry shows the natural chain unless it says otherwise.
UniProt Q8SWX0: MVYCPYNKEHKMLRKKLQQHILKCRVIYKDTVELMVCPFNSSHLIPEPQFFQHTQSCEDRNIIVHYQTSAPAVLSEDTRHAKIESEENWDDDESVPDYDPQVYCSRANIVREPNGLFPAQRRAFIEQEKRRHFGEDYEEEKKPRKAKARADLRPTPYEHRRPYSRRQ
UniProt O97159: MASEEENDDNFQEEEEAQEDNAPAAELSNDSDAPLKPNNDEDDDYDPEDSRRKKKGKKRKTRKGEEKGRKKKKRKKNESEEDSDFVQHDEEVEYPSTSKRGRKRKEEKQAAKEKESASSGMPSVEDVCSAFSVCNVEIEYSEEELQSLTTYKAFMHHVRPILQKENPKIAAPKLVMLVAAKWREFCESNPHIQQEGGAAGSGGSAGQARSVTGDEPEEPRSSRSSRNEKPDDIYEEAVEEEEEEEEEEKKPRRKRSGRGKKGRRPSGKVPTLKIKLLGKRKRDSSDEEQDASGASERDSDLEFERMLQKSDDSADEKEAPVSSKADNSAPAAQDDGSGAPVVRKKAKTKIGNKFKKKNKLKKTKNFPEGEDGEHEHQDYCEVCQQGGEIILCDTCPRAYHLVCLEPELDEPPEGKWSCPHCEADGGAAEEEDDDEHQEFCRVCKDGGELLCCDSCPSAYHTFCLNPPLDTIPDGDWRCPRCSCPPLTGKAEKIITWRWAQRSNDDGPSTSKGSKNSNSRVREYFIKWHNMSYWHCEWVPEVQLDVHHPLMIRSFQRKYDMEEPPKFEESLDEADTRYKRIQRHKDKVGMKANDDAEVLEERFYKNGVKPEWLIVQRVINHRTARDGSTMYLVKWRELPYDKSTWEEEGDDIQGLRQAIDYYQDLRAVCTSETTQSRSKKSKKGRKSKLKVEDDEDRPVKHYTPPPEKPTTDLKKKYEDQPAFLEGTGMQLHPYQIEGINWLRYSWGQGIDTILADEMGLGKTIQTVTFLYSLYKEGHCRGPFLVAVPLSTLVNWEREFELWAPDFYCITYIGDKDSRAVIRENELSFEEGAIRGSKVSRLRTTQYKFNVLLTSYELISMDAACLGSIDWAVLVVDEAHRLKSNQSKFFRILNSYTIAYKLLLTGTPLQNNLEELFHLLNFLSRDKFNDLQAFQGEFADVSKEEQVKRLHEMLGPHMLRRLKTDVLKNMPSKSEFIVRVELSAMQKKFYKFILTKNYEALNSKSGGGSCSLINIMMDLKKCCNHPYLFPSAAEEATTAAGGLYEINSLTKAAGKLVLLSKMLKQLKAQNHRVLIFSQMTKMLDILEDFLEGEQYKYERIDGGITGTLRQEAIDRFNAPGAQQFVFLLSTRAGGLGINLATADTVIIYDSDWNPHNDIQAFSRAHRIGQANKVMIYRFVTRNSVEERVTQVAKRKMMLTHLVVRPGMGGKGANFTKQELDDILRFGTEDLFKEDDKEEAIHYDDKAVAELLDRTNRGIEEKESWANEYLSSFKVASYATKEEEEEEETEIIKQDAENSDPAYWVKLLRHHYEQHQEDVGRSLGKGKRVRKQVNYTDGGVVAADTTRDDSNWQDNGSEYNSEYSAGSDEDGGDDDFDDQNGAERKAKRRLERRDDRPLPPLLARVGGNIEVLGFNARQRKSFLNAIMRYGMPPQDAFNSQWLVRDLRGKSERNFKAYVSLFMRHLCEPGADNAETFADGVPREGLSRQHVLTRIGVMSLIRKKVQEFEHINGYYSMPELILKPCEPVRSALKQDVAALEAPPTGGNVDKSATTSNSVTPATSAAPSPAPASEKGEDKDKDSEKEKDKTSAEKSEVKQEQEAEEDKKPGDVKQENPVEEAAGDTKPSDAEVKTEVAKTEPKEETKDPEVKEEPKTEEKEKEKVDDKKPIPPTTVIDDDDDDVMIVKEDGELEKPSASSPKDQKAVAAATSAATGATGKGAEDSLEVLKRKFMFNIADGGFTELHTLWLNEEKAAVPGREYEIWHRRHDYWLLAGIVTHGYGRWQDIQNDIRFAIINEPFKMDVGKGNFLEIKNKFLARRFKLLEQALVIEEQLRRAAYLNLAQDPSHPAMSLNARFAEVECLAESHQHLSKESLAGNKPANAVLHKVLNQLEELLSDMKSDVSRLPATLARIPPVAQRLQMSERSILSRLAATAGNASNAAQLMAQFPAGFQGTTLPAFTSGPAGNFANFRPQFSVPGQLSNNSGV
UniProt Q94517: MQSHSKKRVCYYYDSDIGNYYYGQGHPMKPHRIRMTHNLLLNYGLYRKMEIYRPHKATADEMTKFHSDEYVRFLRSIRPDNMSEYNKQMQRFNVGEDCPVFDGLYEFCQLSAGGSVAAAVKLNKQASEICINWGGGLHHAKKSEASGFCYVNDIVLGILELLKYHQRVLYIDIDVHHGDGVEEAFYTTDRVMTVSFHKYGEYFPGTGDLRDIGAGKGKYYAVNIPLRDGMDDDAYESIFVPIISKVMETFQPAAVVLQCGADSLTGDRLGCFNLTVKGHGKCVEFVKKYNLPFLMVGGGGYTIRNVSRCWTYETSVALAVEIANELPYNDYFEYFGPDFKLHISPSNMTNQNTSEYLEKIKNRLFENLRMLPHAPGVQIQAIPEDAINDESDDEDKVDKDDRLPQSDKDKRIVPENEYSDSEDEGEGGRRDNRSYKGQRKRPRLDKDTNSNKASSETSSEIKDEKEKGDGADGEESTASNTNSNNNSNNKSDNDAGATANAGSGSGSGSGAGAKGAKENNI
UniProt Q24572: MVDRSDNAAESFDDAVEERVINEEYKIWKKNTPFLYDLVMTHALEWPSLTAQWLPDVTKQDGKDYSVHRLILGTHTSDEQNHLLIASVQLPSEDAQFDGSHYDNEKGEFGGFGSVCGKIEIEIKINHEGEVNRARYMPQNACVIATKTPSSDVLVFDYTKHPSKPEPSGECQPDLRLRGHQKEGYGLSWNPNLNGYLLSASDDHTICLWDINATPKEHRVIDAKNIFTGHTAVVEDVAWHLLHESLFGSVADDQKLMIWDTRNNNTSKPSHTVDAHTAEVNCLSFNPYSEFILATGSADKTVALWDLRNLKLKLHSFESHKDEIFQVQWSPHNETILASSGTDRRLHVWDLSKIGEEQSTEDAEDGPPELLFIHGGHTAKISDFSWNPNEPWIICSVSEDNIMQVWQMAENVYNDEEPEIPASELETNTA

Assay [2] concerns the target Gtsf1-GFP (Drosophila) (UniProt Q8SWX0). As to the kind of experiment: co-IP; GFP-Trap on nuclear extract of OSCs transiently overexpressing a C-terminally GFP-tagged bait (Gtsf1-GFP or Su(var)2-10-GFP); control: OSCs transfected with a GFP-expressing vector; western blot.
In assay [3] the target is Gtsf1 fused to the FLAG-tagged Firefly luciferase (FFL) (Drosophila (cDNA from OSC cells)). As to the kind of experiment: co-IP; LUMIER, semi-quantitative luminescence-based dual-luciferase co-IP: FLAG-Firefly-luciferase bait and Renilla-luciferase preys transiently co-expressed in S2R+ cells, anti-FLAG IP, co-IP efficiency normalized to the RL-mCherry co-IP.
Assay [4] has as its target MEP-1 (Drosophila (endogenous in OSC)). In words: co-IP; IP of endogenous Piwi (anti-Piwi mouse monoclonal) or endogenous MEP-1 (anti-MEP-1 rabbit polyclonal) from OSC nuclear extract (Gtsf1-FH-containing; for Fig. 6a expressing FLAG-FFL-Su(var)2-10), Nuclear Complex Co-IP Kit under stringent conditions, overnight at 4 °C, Dynabeads protein G, control IgG, western blot.
Assay [5] concerns the target Gtsf1-GFP (Drosophila) (UniProt Q8SWX0). In words: co-IP; GFP-Trap on nuclear extract of OSCs transiently overexpressing a C-terminally GFP-tagged bait (Gtsf1-GFP or Su(var)2-10-GFP); control: OSCs transfected with a GFP-expressing vector; western blot. This is another data set of the same source.
Assay [6] addresses Su(var)2-10-GFP (Drosophila). The assay is described as above.

Experimental findings from article PMC7272611 are described below.

Where two headings read alike, the source gives them in different places. These are yes or no findings as the source states them, for the method shown. Binding seen in cells or lysates may run through a third protein. Binding calls can cover weak binding; strength is not graded here. For some of these results: Where a sequence is shown, tags or fusion partners need not be part of it.

As to “Gtsf1-FH (Drosophila (endogenous in OSC))”, in assay [1], the binding result is “binds”.

On to MEP-1 (Drosophila (endogenous in OSC)), for which, in assay [1], the binding entry was “binds”.

“MTA1-like (Drosophila (endogenous in OSC))”: the binding result in assay [1] was “no binding”.

On to Mi-2 (from UniProt O97159 1-1982), for which the binding result in assay [2] is recorded as “binds”.

For the molecule Rpd3 (from UniProt Q94517 1-521), in assay [2], the binding entry is reported as “binds”.

For the molecule p55 (from UniProt Q24572 1-430), in assay [2], the binding entry is recorded as “binds”.

B1: Piwi fused to Renilla luciferase (RL) (protein, UniProt Q9VKM1 1-843)
chain: MADDQGRGRRRPLNEDDSSTSRGSGDGPRVKVFRGSSSGDPRADPRIEASRERRALEEAPRREGGPTERKPWGDQYDYLNTRPAELVSKKGTDGVPVMLQTNFFRLKTKPEWRIVHYHVEFEPSIENPRVRMGVLSNHANLLGSGYLFDGLQLFTTRKFEQEITVLSGKSKLDIEYKISIKFVGFISCAEPRFLQVLNLILRRSMKGLNLELVGRNLFDPRAKIEIREFKMELWPGYETSIRQHEKDILLGTEITHKVMRTETIYDIMRRCSHNPARHQDEVRVNVLDLIVLTDYNNRTYRINDVDFGQTPKSTFSCKGRDISFVEYYLTKYNIRIRDHNQPLLISKNRDKALKTNASELVVLIPELCRVTGLNAEMRSNFQLMRAMSSYTRMNPKQRTDRLRAFNHRLQNTPESVKVLRDWNMELDKNVTEVQGRIIGQQNIVFHNGKVPAGENADWQRHFRDQRMLTTPSDGLDRWAVIAPQRNSHELRTLLDSLYRAASGMGLRIRSPQEFIIYDDRTGTYVRAMDDCVRSDPKLILCLVPNDNAERYSSIKKRGYVDRAVPTQVVTLKTTKNRSLMSIATKIAIQLNCKLGYTPWMIELPLSGLMTIGFDIAKSTRDRKRAYGALIASMDLQQNSTYFSTVTECSAFDVLANTLWPMIAKALRQYQHEHRKLPSRIVFYRDGVSSGSLKQLFEFEVKDIIEKLKTEYARVQLSPPQLAYIVVTRSMNTRFFLNGQNPPPGTIVDDVITLPERYDFYLVSQQVRQGTVSPTSYNVLYSSMGLSPEKMQKLTYKMCHLYYNWSGTTRVPAVCQYAKKLATLVGTNLHSIPQNALEKKFYYL
Turning to B1, the binding entry in assay [3] is “binds”.

B2: Piwi (protein, UniProt Q9VKM1 1-843)
chain: MADDQGRGRRRPLNEDDSSTSRGSGDGPRVKVFRGSSSGDPRADPRIEASRERRALEEAPRREGGPTERKPWGDQYDYLNTRPAELVSKKGTDGVPVMLQTNFFRLKTKPEWRIVHYHVEFEPSIENPRVRMGVLSNHANLLGSGYLFDGLQLFTTRKFEQEITVLSGKSKLDIEYKISIKFVGFISCAEPRFLQVLNLILRRSMKGLNLELVGRNLFDPRAKIEIREFKMELWPGYETSIRQHEKDILLGTEITHKVMRTETIYDIMRRCSHNPARHQDEVRVNVLDLIVLTDYNNRTYRINDVDFGQTPKSTFSCKGRDISFVEYYLTKYNIRIRDHNQPLLISKNRDKALKTNASELVVLIPELCRVTGLNAEMRSNFQLMRAMSSYTRMNPKQRTDRLRAFNHRLQNTPESVKVLRDWNMELDKNVTEVQGRIIGQQNIVFHNGKVPAGENADWQRHFRDQRMLTTPSDGLDRWAVIAPQRNSHELRTLLDSLYRAASGMGLRIRSPQEFIIYDDRTGTYVRAMDDCVRSDPKLILCLVPNDNAERYSSIKKRGYVDRAVPTQVVTLKTTKNRSLMSIATKIAIQLNCKLGYTPWMIELPLSGLMTIGFDIAKSTRDRKRAYGALIASMDLQQNSTYFSTVTECSAFDVLANTLWPMIAKALRQYQHEHRKLPSRIVFYRDGVSSGSLKQLFEFEVKDIIEKLKTEYARVQLSPPQLAYIVVTRSMNTRFFLNGQNPPPGTIVDDVITLPERYDFYLVSQQVRQGTVSPTSYNVLYSSMGLSPEKMQKLTYKMCHLYYNWSGTTRVPAVCQYAKKLATLVGTNLHSIPQNALEKKFYYL
Turning to B2, the binding entry in assay [4], in assay [5] and in assay [6] was “binds” in each case.
